Values of other authors in patent publication US20180318381A1, “Methods of Treatment of Rhabdomyolysis” (University of Pittsburgh - Of the Commonwealth System of …, priority 2015, published 2018).
Read-outs that look alike come from different tables or passages of the source. At least one structure is not confirmed: it was looked up by name or label, or the drawing left a doubt.

Tested on: FAO-deficient cells
Details: cited from earlier work
[1] = cells from CPT2 deficient patients
[2] = cells from patients with the myopathic form of VLCAD deficiency
[3] = cells from severely affected VLCAD patients

SMILES: CC(C)(Oc1ccc(C(=O)c2ccc(Cl)cc2)cc1)C(=O)O [fenofibric acid]
- palmitate oxidation capacities [1]: dose-dependent increase
- palmitate oxidation capacities [2]: dose-dependent increase
- palmitate oxidation capacities [3]: not in cells from severely affected patients

SMILES: CC(C)(Oc1ccc(CCNC(=O)c2ccc(Cl)cc2)cc1)C(=O)O [Bezafibrate]
- palmitate oxidation capacities [1]: dose-dependent increase
- palmitate oxidation capacities [2]: dose-dependent increase
- palmitate oxidation capacities [3]: not in cells from severely affected patients
